Experimental data taken from PMC9532970, “Rational design of photosynthetic reaction center protein maquettes” (Frontiers in Molecular Biosciences, 2022).

Tested on: RC maquette
Assay: UV/vis cofactor binding titration into RC maquette (no heme pre-bound)
Settings: electron acceptor titrated into RC maquette, pH 7.0
Description: Ultraviolet/visible absorbance spectroscopy (UV/vis) was carried out on a Varian Cary-50 spectrophotometer. Cofactor binding titrations were performed at room temperature using 1 ml samples of ∼1 μM RC maquette in quartz cuvettes. Protein concentrations were calculated by assuming that Trp and Tyr residues have extinction coefficients at 280 nm (ε280nm) of 5,500 M^−1 cm^−1 and 1,490 M^−1 cm^−1, respectively. Samples of Zn 5-phenyl 15-(p-carboxyphenyl) porphyrin (ZnPCP) and Zn Newkome porphyrin were provided by Tatiana Esipova from the research group of Sergei Vinogradov ([Kodali et al., 2017]). The Zn chlorins SE370 and SE375 were produced by the laboratory of Jonathan Lindsey following previously established methods ([Aravindu et al., 2013]; [Kodali et al., 2017]). […] Heme B stock concentrations were measured by hemochrome assay ([Berry and Trumpower, 1987]). […]
In Eq. 2, A represents the total absorbance at a given wavelength, c tot is the total cofactor concentration, P tot is the total protein concentration, K D is the dissociation constant, εfree is the extinction coefficient of unbound cofactor in solution, εbound is the extinction coefficient of protein-bound cofactor, and b is the absorbance of the sample when c tot is zero.

Row | SMILES | binding stoichiometry (cofactor per maquette)
1 | C=Cc1c(C)c2cc3[nH]c(cc4nc(cc5nc(cc1[nH]2)C(C)=C5CCC(=O)[O-])C(CCC(=O)[O-])=C4C)c(C)c3C=C.[Co+2] [CoPPIX, Co(III) protoporphyrin IX] | 1.0
2 | C=CC1=C(C)c2cc3[n-]c(cc4[n-]c(cc5nc(cc1n2)C(C)=C5C=C)c(C)c4CCC(=O)O)c(CCC(=O)O)c3C.[Fe+2] [heme B] | 1.0
